This is one part of the list.
What follows are sequences tested against T1, OsSMF1 (Oryza sativa, UniProt Q6ZLB0 1-436) (assay: protein-binding microarray (RPBM); PBS, 2% BSA, 51.3 ng/ul salmon testes DNA, 50 uM zinc acetate, 200 nM TF, 25 C, 1 h; high values mean tight binding). Details: protein: recombinant; tags: N-terminal polyhistidine and DsRed monomer fusion (pET32a); chain copies: 2; label: CyDye5-dUTP incorporated in the synthesized complementary strand; 3' TTTTT single-stranded linker to array surface; dsDNA, one strand shown.
T1 sequence: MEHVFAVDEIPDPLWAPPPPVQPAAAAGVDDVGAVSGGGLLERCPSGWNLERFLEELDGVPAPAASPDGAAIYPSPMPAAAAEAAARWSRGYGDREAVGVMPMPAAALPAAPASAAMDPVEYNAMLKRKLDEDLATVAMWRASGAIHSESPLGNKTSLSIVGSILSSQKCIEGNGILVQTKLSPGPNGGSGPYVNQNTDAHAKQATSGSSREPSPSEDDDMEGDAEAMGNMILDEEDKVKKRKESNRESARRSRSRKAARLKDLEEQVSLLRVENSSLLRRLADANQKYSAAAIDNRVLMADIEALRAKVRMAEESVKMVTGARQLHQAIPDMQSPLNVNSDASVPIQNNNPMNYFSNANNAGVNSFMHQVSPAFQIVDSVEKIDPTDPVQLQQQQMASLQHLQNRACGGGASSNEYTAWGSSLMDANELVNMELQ
In short: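 Ni–NTA purification followed expression in E. coli BL21-CodonPlus of transcription factors fused N-terminally to a polyhistidine tag and DsRed. At 200 nM in PBS with 2% BSA, salmon testes DNA and 50 µM zinc acetate, the protein was incubated for 1 h at 25 °C with a custom Agilent array that had been primer-extended with Cy5-dUTP and blocked with 2% BSA. After washing, the array was read on an Axon 4000B scanner. The binding signal is per-feature fluorescence intensity in arbitrary units.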

Point of comparison: “ATCCACCGTCGTGTCGCCCACTGTCCAACTGCCAGTCAGCCGGAGTCACCTAGTGCAG”, binding signal 3480 fluorescence intensity (a.u.). Against it:
- CGCGCCGCCTCTCCTTGTTGTCTCGTCGCGCGCCGGCGCCCGGAGTCACCTAGTGCAG — higher, 4820 fluorescence intensity (a.u.)
- TTTGCATTAAATATGACAGCAATATATCTATCTCATCCAACGGAGTCACCTAGTGCAG — higher, 23200 fluorescence intensity (a.u.)
- TCCAACCTAAGCTACCCAACACACCTGACGACTTGCTATACGGAGTCACCTAGTGCAG — lower, 3350 fluorescence intensity (a.u.)
- AAGATTTCCAGTCATCAGTCTGAGCGAGCTGTGCTTGTTGCGGAGTCACCTAGTGCAG — higher, 4690 fluorescence intensity (a.u.)
- ATTGAACATCTGTGTGACACGTGCCTTAGCACAAATCGTACGGAGTCACCTAGTGCAG — higher, 5600 fluorescence intensity (a.u.)
- TTCAACAGGCCTGACTCAACAAATTTGTGAAATTATTATGCGGAGTCACCTAGTGCAG — higher, 4140 fluorescence intensity (a.u.)
- CTTCCTCGTCGATGGGTATCTCGTGTATGATGTCCTCCTCCGGAGTCACCTAGTGCAG — lower, 3410 fluorescence intensity (a.u.)
- TTCAATTACACAGGTCAATTCGGTTTTCTTAGTGACCAACCGGAGTCACCTAGTGCAG — higher, 26100 fluorescence intensity (a.u.)
- ATTCCATATGTACAGATTGCACGTTGTCTAAAGTATGACACGGAGTCACCTAGTGCAG — higher, 4070 fluorescence intensity (a.u.)
- TAGTCATAAGTGCTATAGTAACCCACGTATGCTAATGACGCGGAGTCACCTAGTGCAG — higher, 7340 fluorescence intensity (a.u.)
- TAGTTTTCCTGGTTAGAGGACATCGGAGTAGCGCCGATGGCGGAGTCACCTAGTGCAG — lower, 3470 fluorescence intensity (a.u.)
- CCGTCCCCGCCGCGCTGACGTACTACTGGAGGATGTCCATCGGAGTCACCTAGTGCAG — higher, 4220 fluorescence intensity (a.u.)
- ATTACATGTTCCCCACCAGTGACAACACACTGATCAGACCCGGAGTCACCTAGTGCAG — higher, 4300 fluorescence intensity (a.u.)
- TCGCTACAAGATCTGAGTCAACGTGTCACGCGCTGCGCCTCGGAGTCACCTAGTGCAG — higher, 12400 fluorescence intensity (a.u.)
- TGCGTACAAAGGTTTGATATGGGGAGTGGGTATCAAACGACGGAGTCACCTAGTGCAG — higher, 3690 fluorescence intensity (a.u.)
- CACTTCCATCCTTTCTTGTACAGTTGTACTGTTGTTACCTCGGAGTCACCTAGTGCAG — higher, 3740 fluorescence intensity (a.u.)
- CGATCATATAGGGACGCCACGTCAATAAGAAACTATACCCCGGAGTCACCTAGTGCAG — higher, 12000 fluorescence intensity (a.u.)
- CCATCTGTATCCACGTCCGCATCACTCTCATCCCTACCGTCGGAGTCACCTAGTGCAG — higher, 17800 fluorescence intensity (a.u.)
- CCTCCTCCGCCCAGTGACATGCCACCCGCCGCCGCCGCCGCGGAGTCACCTAGTGCAG — higher, 3980 fluorescence intensity (a.u.)
- ATTTGGCTAACAATTTTATCCACCGATCCACTCGTGCCACCGGAGTCACCTAGTGCAG — higher, 35500 fluorescence intensity (a.u.)
- GCCACGCCCAACCCGTGTCACTGTCACGTGGGCCCCACCCCGGAGTCACCTAGTGCAG — higher, 7720 fluorescence intensity (a.u.)
- GCCCATCGCCTCCTCCTCGAGCCACCGCGCTGCCGTGTGCCGGAGTCACCTAGTGCAG — lower, 3150 fluorescence intensity (a.u.)
- CTCGATCACACACGGTGTCACAGTCACAGGTGCATTGACGCGGAGTCACCTAGTGCAG — higher, 7140 fluorescence intensity (a.u.)
- TATGCATGCATGTACGGTGCTGTACAGGTATGTGTGATCGCGGAGTCACCTAGTGCAG — higher, 4780 fluorescence intensity (a.u.)
- AGCGGGAGAAACGGTCTCCGTGACTCACTGACAAGGTGGGCGGAGTCACCTAGTGCAG — higher, 13300 fluorescence intensity (a.u.)
- CAGCACAAGTGTCGTCGTCTCTCCGTTTCTTGTGCAGTTTCGGAGTCACCTAGTGCAG — lower, 3360 fluorescence intensity (a.u.)
- TGGAGAGAGGGATTTCATCATCAGGAAGGTCCACAGATCTCGGAGTCACCTAGTGCAG — higher, 35100 fluorescence intensity (a.u.)
- TGCCTCTCACGTACTGACACTGTTGCGCACACGCACGCACCGGAGTCACCTAGTGCAG — lower, 3180 fluorescence intensity (a.u.)
- TTATATGCCTCAAGTGACTAGGATAGCATCCTCGCTAATACGGAGTCACCTAGTGCAG — higher, 3720 fluorescence intensity (a.u.)
- TTTTAACAGTGCCTGCAACATGTTGGGTGTCTCAGAACATCGGAGTCACCTAGTGCAG — higher, 10600 fluorescence intensity (a.u.)
- GTCTTCCGCGGCGGCGGCGGGGAAGCGGGCGCGGGCGGGGCGGAGTCACCTAGTGCAG — higher, 4180 fluorescence intensity (a.u.)
- ATCAGAAACTTCCCTTAGATTGAAGAGTCAAACCTCATTCCGGAGTCACCTAGTGCAG — lower, 3470 fluorescence intensity (a.u.)
- AGAAACAACCACTTTTCTTAGATGTTCCATGATAAAAGGCCGGAGTCACCTAGTGCAG — higher, 5840 fluorescence intensity (a.u.)
- CACCACCTGAGTCACTGACACGTGGGCCCCATCGCTCTCCCGGAGTCACCTAGTGCAG — higher, 15400 fluorescence intensity (a.u.)
- GAGGCCCTGGTTTAGCGTCACGCGCCCGCCACACTGTCCTCGGAGTCACCTAGTGCAG — higher, 5920 fluorescence intensity (a.u.)
- CGGTGCCGCGTCGACGCCGCCTCCGCCGACGCCATCCTCTCGGAGTCACCTAGTGCAG — higher, 5610 fluorescence intensity (a.u.)
- GACTGGAGCGCCACGCATTCTCCCTCCATGGATCCTCCTGCGGAGTCACCTAGTGCAG — higher, 4740 fluorescence intensity (a.u.)
- CGACTCGACTTGAATGCTCGTAGAGCACGCAACCACACTGCGGAGTCACCTAGTGCAG — lower, 3230 fluorescence intensity (a.u.)
- TAAGCCATATATAATCACACTGTACACTGATTTTCAGACTCGGAGTCACCTAGTGCAG — lower, 3450 fluorescence intensity (a.u.)
- ACCGACCGCGGTGCTCCCTGAGGGCTGGGCCATGCTACGGCGGAGTCACCTAGTGCAG — higher, 3940 fluorescence intensity (a.u.)
- GTCTCTCTGTGTTGTACACGTTTTCTCCAGCTACACCTTGCGGAGTCACCTAGTGCAG — higher, 5740 fluorescence intensity (a.u.)
- ACATGGGCCGCAATCAGGTCACGTGGCTAGGCCTTGGGCCCGGAGTCACCTAGTGCAG — lower, 3230 fluorescence intensity (a.u.)
- CATTATCTAAGTTTCTTTACGTCATTATCTTCGTTTAATTCGGAGTCACCTAGTGCAG — lower, 3230 fluorescence intensity (a.u.)
- TAATACTACTACTCCTACCCTGACGCGTGACCCGGCCGGTCGGAGTCACCTAGTGCAG — lower, 3430 fluorescence intensity (a.u.)
- CTAGTCTAGCCAAACGTAACCACTGTCATGATAGCAATACCGGAGTCACCTAGTGCAG — higher, 4520 fluorescence intensity (a.u.)
- GAAATCGGATCCCCTTGACGCAATCCTCTGGTTGGCATGACGGAGTCACCTAGTGCAG — lower, 3170 fluorescence intensity (a.u.)
- CCGGTATTTGTAAATGGCCAAAGGAAGCAAACCATTAGGCCGGAGTCACCTAGTGCAG — lower, 3320 fluorescence intensity (a.u.)
- AGGAGCTCCTGTCAGTTGAGAAGCGACAGTTATAAAATGTCGGAGTCACCTAGTGCAG — higher, 3510 fluorescence intensity (a.u.)
- AGCGGTGCTGTCGTAGGGCTAGTCGCCACCTTCGGCTCTACGGAGTCACCTAGTGCAG — higher, 17200 fluorescence intensity (a.u.)
- GCCCACAATGTCGTCCGTCCAGCGCAGCGCAAAACTGGGGCGGAGTCACCTAGTGCAG — higher, 3560 fluorescence intensity (a.u.)
- TATGTCACCGGATTTGGCCATGTCACTGGACGCTGCGGTCCGGAGTCACCTAGTGCAG — higher, 24700 fluorescence intensity (a.u.)
- TCCACTCTCTGACTTTAATATTTACCACACGTTTGCAACTCGGAGTCACCTAGTGCAG — lower, 3370 fluorescence intensity (a.u.)
- GAAGGGTGGGGCACGCACGCCACGCGGCGGAAGCGGTGCGCGGAGTCACCTAGTGCAG — higher, 4600 fluorescence intensity (a.u.)

Reference: paper PMC7819943, “Rice protein-binding microarrays: a tool to detect cis-acting elements near promoter regions in rice”
